The test has as its system P. falciparum clone Dd2. Briefly: microbe, parasite or virus in culture. In kind it is cell-based. To be noted: Plasmodium falciparum, DD2, read-out: IC50 against P. falciparum clone Dd2. As for the experimental part: Cultures of Plasmodium falciparum.
In vitro antiplasmodial activity: All solutions of chloroquine diphosphate, artemisinin (Sigma Aldrich), and OHCT were prepared in media RPMI 1640, ethanol and 0.1% DMSO, respectively. […] Parasite growth was estimated by microscopic observation of Giemsa-stained blood smears. All results presented are the means of at least three independent experiments.
OHCT action on specific parasite life cycle stages: P. falciparum cultures were synchronized with 5% sorbitol and the Percoll-Sorbitol methods. Dilutions of OHCT, chloroquine, and artemisinin were prepared. To determine the in vitro efficacies of the three antimalarial drugs in culture, serial dilutions were prepared: for artemisinin, chloroquine and OHCT at 2, 4, 8, 16, 32 and 40 μM, respectively. After synchronization, the parasites were plated at the ring stage in 96-well plates. Each plate corresponded to one of the successive 6-h periods of the P. falciparum life cycle.

The structures appear in SMILES notation.

Usually IC50 stands for the concentration needed to halve the response being measured. Consider `CCN(CC)CCCC(C)Nc1ccnc2cc(Cl)ccc12` (stereo not shown) [chloroquine, reference compound], for which the IC50 was 560 nM.

These data come from patent US20090149551A1 (priority 2007, published 2009).
